Measured values published in PubChem BioAssay AID248 (DTP/NCI, 2004).
The list shows only some results of the screen, not a fair sample: it covers a few groups of compounds. Not every dose and run of a compound is shown. T/C gives the treated animals as a percentage of the vehicle group. Some entries give survivors of the animals treated and no T/C: the source holds a T/C of zero for them, seemingly a mark for toxic or unscored doses. Some survivor counts are full or nearly so, which does not show that the dose was tolerated: the source hardly ever lists a survival T/C far under the control, and the zero likely stands for such cases as well. Survivors were counted at the toxicity check, usually on the fifth day, unless a day is given; later deaths do not show. Schedule codes are those of the source, read here as Q, the interval in days (D) or hours (H), X, the number of doses. Some schedule codes hold Z or #, which are not explained here. Where survival is the endpoint, this PubChem deposit counts one and a half times the control or more as active, and values a quarter to a half above the control carry no call in these data; other NCI protocols may use other cut-offs. Some entries show no survivor count and are marked so; the dose need not have been tolerated. Some T/C values carry the count of animals alive at the toxicity check (mostly the fifth day); where neither a count nor a note follows, no animal had died by that day.

Tested on: L1210 leukemia ip in BDF1 mice, survival T/C
Test: NCI In Vivo Anticancer Drug Screen. Data for tumor model L1210 Leukemia (intraperitoneal) in B6D2F1 (BDF1) mice
Conditions: T/C endpoint: mean survival time, higher T/C = longer survival
[1] = dose: 25.0 mg/kg/injection, schedule: Q04DX003 (ip), vehicle: saline with Tween-80
[2] = dose: 50.0 mg/kg/injection, schedule: Q04DX003 (ip), vehicle: saline with Tween-80
[3] = dose: 100.0 mg/kg/injection, schedule: Q04DX003 (ip), vehicle: saline with Tween-80
[4] = dose: 100.0 mg/kg/injection, schedule: Q01DX001 (ip), vehicle: Klucel (hydroxypropylcellulose) (HPC)
[5] = dose: 100.0 mg/kg/injection, schedule: Q01DX009 (ip), vehicle: Klucel (hydroxypropylcellulose) (HPC)
[6] = dose: 100.0 mg/kg/injection, schedule: Q04DX003 (ip), vehicle: Klucel (hydroxypropylcellulose) (HPC)
[7] = dose: 200.0 mg/kg/injection, schedule: Q01DX009 (ip), vehicle: Klucel (hydroxypropylcellulose) (HPC)
[8] = dose: 200.0 mg/kg/injection, schedule: Q04DX003 (ip), vehicle: Klucel (hydroxypropylcellulose) (HPC)
[9] = dose: 400.0 mg/kg/injection, schedule: Q01DX009 (ip), vehicle: Klucel (hydroxypropylcellulose) (HPC)
[10] = dose: 400.0 mg/kg/injection, schedule: Q04DX003 (ip), vehicle: Klucel (hydroxypropylcellulose) (HPC)
[11] = dose: 100.0 mg/kg/injection, schedule: Q01DX001 (ip), vehicle: saline
[12] = dose: 200.0 mg/kg/injection, schedule: Q01DX001 (ip), vehicle: saline
[13] = dose: 400.0 mg/kg/injection, schedule: Q01DX001 (ip), vehicle: saline

## CN(CCCl)CC1OC(O)C(O)C(O)C1O (configuration not stated)
dose: 5.6 mg/kg/injection, schedule: Q01DX Z (ip), vehicle: saline
  T/C: 121 % of control
dose: 11.3 mg/kg/injection, schedule: Q01DX Z (ip), vehicle: saline
  T/C: 144 % of control
dose: 18.0 mg/kg/injection, schedule: Q01DX Z (ip), vehicle: methylcellulose (MC)
  T/C: 184 % of control
dose: 22.5 mg/kg/injection, schedule: Q01DX Z (ip), vehicle: saline
  T/C: 152 % of control
dose: 27.0 mg/kg/injection, schedule: Q01DX Z (ip), vehicle: methylcellulose (MC)
  T/C: 182 % of control
dose: 40.0 mg/kg/injection, schedule: Q01DX Z (ip), vehicle: methylcellulose (MC)
  T/C: 146 % of control
dose: 45.0 mg/kg/injection, schedule: Q01DX Z (ip), vehicle: saline
  T/C: 144 % of control
dose: 60.0 mg/kg/injection, schedule: Q01DX Z (ip), vehicle: methylcellulose (MC)
  survivor count: 4 of 6
dose: 90.0 mg/kg/injection, schedule: Q01DX Z (ip), vehicle: methylcellulose (MC)
  survivor count: 2 of 6
dose: 90.0 mg/kg/injection, schedule: Q01DX Z (ip), vehicle: saline
  survivor count: 3 of 6

## Cc1c([N+](=O)[O-])cc(C(=O)N=[N+]=[N-])cc1[N+](=O)[O-]
[1]
  T/C: 106 % of control
[2]
  T/C: 97 % of control
[3]
  T/C: 98 % of control

## O=P(NC(=S)NN1CCOCC1)(Oc1ccccc1)Oc1ccccc1
dose: 100.0 mg/kg/injection, schedule: Q01DX009 (ip), vehicle: carboxymethylcellulose (CMC)
  T/C: 104 % of control
dose: 200.0 mg/kg/injection, schedule: Q01DX009 (ip), vehicle: carboxymethylcellulose (CMC)
  T/C: 98 % of control
dose: 400.0 mg/kg/injection, schedule: Q01DX009 (ip), vehicle: carboxymethylcellulose (CMC)
  T/C: 93 % of control

## CC(=O)NC(CBr)(SC(C)=O)C(=O)O (configuration not stated)
[4]
  T/C: 95 % of control
dose: 200.0 mg/kg/injection, schedule: Q01DX001 (ip), vehicle: Klucel (hydroxypropylcellulose) (HPC)
  T/C: 92 % of control
dose: 400.0 mg/kg/injection, schedule: Q01DX001 (ip), vehicle: Klucel (hydroxypropylcellulose) (HPC)
  T/C: 94 % of control

## C(=C/[AsH](c1ccccc1)c1ccccc1)/[AsH](c1ccccc1)c1ccccc1.C(=C/[AsH](c1ccccc1)c1ccccc1)/[AsH](c1ccccc1)c1ccccc1.[Rh+2].[S-][S-]
dose: 25.0 mg/kg/injection, schedule: Q01DX001 (ip), vehicle: Klucel (hydroxypropylcellulose) (HPC)
  T/C: 106 % of control
dose: 50.0 mg/kg/injection, schedule: Q01DX001 (ip), vehicle: Klucel (hydroxypropylcellulose) (HPC)
  T/C: 97 % of control
[4]
  T/C: 105 % of control

## C1CCC2(CC1)OOC1(CCCCC1)OOC1(CCCCC1)OO2
dose: 50.0 mg/kg/injection, schedule: Q01DX009 (ip), vehicle: saline with Tween-80
  T/C: 96 % of control [survivor count not shown]
dose: 100.0 mg/kg/injection, schedule: Q01DX009 (ip), vehicle: saline with Tween-80
  T/C: 96 % of control [survivor count not shown]
dose: 200.0 mg/kg/injection, schedule: Q01DX009 (ip), vehicle: saline with Tween-80
  T/C: 96 % of control [survivor count not shown]

## O=[N+]([O-])c1ccc(NCCNc2ccc([N+](=O)[O-])cc2[N+](=O)[O-])c([N+](=O)[O-])c1
dose: 100.0 mg/kg/injection, schedule: Q04DX002 (ip), vehicle: saline
  T/C: 97 % of control
dose: 200.0 mg/kg/injection, schedule: Q04DX002 (ip), vehicle: saline
  T/C: 93 % of control
dose: 400.0 mg/kg/injection, schedule: Q04DX002 (ip), vehicle: saline
  T/C: 93 % of control

## Nc1c([N+](=O)[O-])cc([N+](=O)[O-])cc1[N+](=O)[O-]
[5]
  T/C: 92 % of control [survivor count not shown]
[6]
  T/C: 101 % of control [survivor count not shown]
[7]
  T/C: 93 % of control [survivor count not shown]
[8]
  T/C: 98 % of control [survivor count not shown]
[9]
  T/C: 94 % of control [survivor count not shown]
[10]
  T/C: 98 % of control [survivor count not shown]

## OC(SCc1c(Cl)c(Cl)c(Cl)c(Cl)c1Cl)C(Cl)(Cl)Cl (configuration not stated)
dose: 75.0 mg/kg/injection, schedule: Q01DX009 (ip), vehicle: saline with Tween-80
  T/C: 91 % of control
dose: 150.0 mg/kg/injection, schedule: Q01DX009 (ip), vehicle: saline with Tween-80
  T/C: 98 % of control [5 of 6 alive]
dose: 300.0 mg/kg/injection, schedule: Q01DX009 (ip), vehicle: saline with Tween-80
  survivor count: 2 of 6

## CCN(CC)c1ccc([N+]#N)cc1.F[P-](F)(F)(F)(F)F
dose: 0.75 mg/kg/injection, schedule: Q01DX009 (ip), vehicle: saline with Tween-80
  T/C: 101 % of control
dose: 1.5 mg/kg/injection, schedule: Q01DX009 (ip), vehicle: saline with Tween-80
  T/C: 104 % of control
dose: 1.5 mg/kg/injection, schedule: Q04DX003 (ip), vehicle: saline with Tween-80
  T/C: 102 % of control
dose: 3.0 mg/kg/injection, schedule: Q01DX009 (ip), vehicle: saline with Tween-80
  T/C: 109 % of control
dose: 3.0 mg/kg/injection, schedule: Q04DX003 (ip), vehicle: saline with Tween-80
  T/C: 96 % of control
dose: 6.0 mg/kg/injection, schedule: Q04DX003 (ip), vehicle: saline with Tween-80
  survivor count: 3 of 6
dose: 12.5 mg/kg/injection, schedule: Q04DX003 (ip), vehicle: saline with Tween-80
  survivor count: 0 of 6
[1]
  survivor count: 0 of 6
[2]
  survivor count: 0 of 6
[3]
  survivor count: 0 of 6
dose: 200.0 mg/kg/injection, schedule: Q04DX003 (ip), vehicle: saline with Tween-80
  survivor count: 0 of 6
dose: 400.0 mg/kg/injection, schedule: Q04DX003 (ip), vehicle: saline with Tween-80
  survivor count: 0 of 6

## ClCCN(Cc1ccccc1)CC1COCO1 (configuration not stated)
dose: 50.0 mg/kg/injection, schedule: Q01DX001 (ip), vehicle: saline
  T/C: 96 % of control
[11]
  T/C: 93 % of control
[12]
  T/C: 100 % of control
[13]
  T/C: 100 % of control

## ClP(Cc1ccccc1)Cc1ccccc1
dose: 75.0 mg/kg/injection, schedule: Q01DX001 (ip), vehicle: carboxymethylcellulose (CMC)
  T/C: 101 % of control
dose: 150.0 mg/kg/injection, schedule: Q01DX001 (ip), vehicle: carboxymethylcellulose (CMC)
  T/C: 95 % of control
dose: 300.0 mg/kg/injection, schedule: Q01DX001 (ip), vehicle: carboxymethylcellulose (CMC)
  T/C: 101 % of control

## O=P(O)(O)F
dose: 50.0 mg/kg/injection, schedule: Q01DX001 (ip), vehicle: carboxymethylcellulose (CMC)
  T/C: 96 % of control
dose: 100.0 mg/kg/injection, schedule: Q01DX001 (ip), vehicle: carboxymethylcellulose (CMC)
  T/C: 105 % of control
dose: 200.0 mg/kg/injection, schedule: Q01DX001 (ip), vehicle: carboxymethylcellulose (CMC)
  T/C: 105 % of control
dose: 400.0 mg/kg/injection, schedule: Q01DX001 (ip), vehicle: carboxymethylcellulose (CMC)
  survivor count: 1 of 4

## O=C(O)C(O)(c1ccccc1)c1ccccc1.OC1CN2CCC1CC2
[11]
  T/C: 98 % of control [survivor count not shown]
dose: 100.0 mg/kg/injection, schedule: Q04DX003 (ip), vehicle: saline
  T/C: 97 % of control [survivor count not shown]
[12]
  T/C: 105 % of control [survivor count not shown]
dose: 200.0 mg/kg/injection, schedule: Q04DX003 (ip), vehicle: saline
  T/C: 101 % of control [survivor count not shown]
[13]
  T/C: 100 % of control [survivor count not shown]
dose: 400.0 mg/kg/injection, schedule: Q04DX003 (ip), vehicle: saline
  T/C: 114 % of control [survivor count not shown]

## O=[N+]([O-])c1cc([N+](=O)[O-])c2ccc3c([N+](=O)[O-])cc([N+](=O)[O-])c4ccc1c2c43
[5]
  T/C: 100 % of control
[6]
  T/C: 102 % of control
[7]
  T/C: 104 % of control [4 of 6 alive]
[8]
  T/C: 98 % of control
[9]
  T/C: 96 % of control
[10]
  T/C: 96 % of control
